Tests used:
[1] = Hole mobility rate of the hole transporting material/layer; format: physicochemical; details: hole transporting layer material
[2] = Crosstalk test of OLED display panel (LGreen/LBlue); details: B screen in a dark room, intensity ratio of green light of adjacent pixels at blue light intensity 0.1 Cd/m^2
Procedure: An OLED display panel having the structure shown in FIG. 2 was prepared by the following process.
Performance tests of the OLED display panels in the Examples and Comparison Examples were carried out.
(2) Crosstalk test method: the program being transferred to the B screen in a dark room, testing the intensity ratio of the green light of adjacent pixels when the blue light intensity was 0.1 Cd/m^2, LGreen/LBlue;

Mask cleaning effect = details: time for complete cleaning of red light MASK of hole transporting layer, ultrasonic 40 kHz, 25° C.
Procedure: (3) Mask Cleaning Effect:
the time required for all the materials on the MASK of the red light of the hole transporting layer 203 to be completely cleaned at a fixed ultrasonic frequency of 40 kHz and at a temperature of 25° C.

SMILES	hole mobility rate [1]	LGreen/LBlue [2] [%]	Mask cleaning time (Mask cleaning effect) [s]
c1ccc(-c2ccc(N(c3ccc(-c4ccccc4)cc3)c3ccc(-c4ccc(N(c5ccc(-c6ccccc6)cc5)c5ccc(-c6ccccc6)cc5)cc4)cc3)cc2)cc1 [Comparison Example 1]	3×10^−4 cm^2/V·S	1.5	80
c1ccc(-c2ccc(N(c3ccc(-c4ccccc4)cc3)c3ccc(N(c4ccc(-c5ccccc5)cc4)c4ccc(-c5ccccc5)cc4)cc3)cc2)cc1 [Comparison Example 2]		1.7	65
Cc1cccc(-c2ccc(N(c3ccc(-c4cccc(C)c4)cc3)c3ccc(-c4cc(C)c(N(c5ccc(-c6cccc(C)c6)cc5)c5ccc(-c6cccc(C)c6)cc5)c(C)c4)cc3)cc2)c1 [Example 1]	2×10^−4 cm^2/V·S	1.9	20
